Measurements as given in the supplement of paper PMC10338343.
± gives the standard deviation. The list shows a part of the results, in another mix than the full data. Many entries were measured with a wide error. This is one part of the list.

What was measured:
[1] = tested on: MILI (PIWIL2) piRISC loaded with L1MC piRNA (26 nt); assay: pre-steady-state target cleavage rate (min^-1); higher = faster piRNA-guided slicing of the target; settings: guide: L1MC piRNA 5'p-UAACUAAAUACUAUGCAAGCUGUAGG
Summary of the method: (§1)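 The pre-steady-state cleavage rate was calculated from a burst-and-steady-state fit. Data came from Cleave-'n-Seq, in which […] transcribed, DNA-blocked target RNA library was mixed with 1 nM active affinity-purified piRISC carrying one synthetic guide, with or without 500 nM GTSF1 partner protein, in HEPES–potassium acetate buffer at 33 °C for 0–8 or 0–960 min. Uncleaved targets were sequenced and normalised to depth and to weakly complementary targets, three trials were pooled, and k3 was capped at 0.0001 min^-1.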

[2] = tested on: MIWI (PIWIL1) piRISC loaded with L1MC piRNA (30 nt); assay: as above; settings: guide: L1MC piRNA 5'p-UAACUAAAUACUAUGCAAGCUGUAGGUCCU
Summary of the method: as §1

[3] = tested on: EfPiwi piRISC loaded with L1MC piRNA (26 nt); assay: pre-steady-state target cleavage rate (min^-1); guide: L1MC piRNA 5'p-UAACUAAAUACUAUGCAAGCUGUAGG; MIWI and MILI are mouse PIWI proteins and EfPiwi is from a freshwater sponge; tags in brackets are library labels; higher = faster piRNA-guided slicing of the target
Summary of the method: as §1

[4] = auxiliary factor: 500 nM mouse GTSF1
[5] = auxiliary factor: none (no GTSF1)
[6] = auxiliary factor: 500 nM Ephydatia muelleri Gtsf1
[7] = auxiliary factor: none (no Gtsf1)

Row | Sequence | pre-steady-state target cleavage rate [1, 4] | pre-steady-state target cleavage rate [2, 4] | pre-steady-state target cleavage rate [2, 5] | pre-steady-state target cleavage rate [3, 6] | pre-steady-state target cleavage rate [1, 5] | pre-steady-state target cleavage rate [3, 7]
1 | UCCUCCUACAGCUUGUAUAGUAUUUAGUUA | 0.305 ± 0.018 | 1.38 ± 0.042 | 0.0427 ± 0.008 | 0.143 ± 0.033 |  | 
2 | UCCUGGAUGUCGUUCCAUAGUAUUUUGUUA |  | 0.00176 ± 0.0071 | 0.000319 ± 0.023 | 0.000577 ± 0.0084 | 0.000271 ± 0.02 | 
3 | UCCUGGAACAGCUUGCAUAGGUAUUUAGUUA | 0.00331 ± 0.0043 | 0.00266 ± 0.0049 | 0.000499 ± 0.01 | 0.00262 ± 0.0026 |  | 
4 | UCCUGGUACAGCUUGCAUACAAUUUAGUAA |  | 0.0076 ± 0.0052 | 0.00166 ± 0.0037 | 0.00131 ± 0.0033 | 0.00152 ± 0.0044 | 
5 | UCCUGGAUGUGCUUCCAUAGUAAUUAGUUA |  | 0.00337 ± 0.0051 | 0.000599 ± 0.011 | 0.00034 ± 0.014 | 0.000553 ± 0.01 | 
6 | UCCUCCUACAGCUUGCAUACUAUUAAGUUA |  | 0.147 ± 0.022 | 0.00892 ± 0.0014 |  | 0.000939 ± 0.0059 | 0.00055 ± 0.0082
7 | UCCUGGAUGUCGUUGCCAUAGUAUUUAGUUA |  | 0.000779 ± 0.01 | 0.000481 ± 0.014 | 0.000216 ± 0.02 | 0.00067 ± 0.011 | 
8 | UCCUCUUACAGCUUGCAUAGUAUUUAGUUA | 0.35 ± 0.015 | 1.62 ± 0.055 | 0.061 ± 0.0099 | 0.243 ± 0.061 |  | 
9 | UCCUGGAUGUCGAACCAUAGUAAUUAGUUA | 0.000264 ± 0.017 | 0.000196 ± 0.019 | 0.000218 ± 0.02 | < 0.0001 |  | 
10 | UCCUGGAACAGCUUGCAUAGUAUUUAGUUA [g2:g23:cont:t1A] | 0.297 ± 0.019 | 1.18 ± 0.034 | 0.0833 ± 0.014 | 0.0806 ± 0.018 |  | 
11 | UCCUCCUACAGCUUGCAUAGUAAAAAGUUA |  | 0.231 ± 0.023 | 0.00183 ± 0.0031 |  | 0.00196 ± 0.0038 | 0.000427 ± 0.01
12 | UCCUGGAUGUGGAUGCAUAGUAUUUAGAAA |  | 0.00077 ± 0.012 | 0.00038 ± 0.011 | 0.00388 ± 0.0027 | 0.000922 ± 0.0074 | 
13 | UCCUGGAUGUCGUUGCAUAGUAUUUAGCUUA |  | 0.00223 ± 0.005 | 0.00174 ± 0.0045 | 0.000654 ± 0.0057 | 0.00198 ± 0.0045 | 
14 | UCCUGGUACAGCUUGCAUGAGUAUUUAGUUA |  | 0.00254 ± 0.0065 | 0.000605 ± 0.016 | 0.000708 ± 0.0084 | 0.00204 ± 0.0065 | 
15 | UCCUGGAUGUCGAACGUAUGUAUUUUAGUUA |  | < 0.0001 |  | < 0.0001 | 0.000222 ± 0.021 | 
16 | UCCUCCCACAGCUUGCAUAGUAUUUAGUUA | 0.296 ± 0.015 | 1.15 ± 0.04 | 0.0641 ± 0.012 | 0.128 ± 0.029 |  | 
17 | UCCUCCUGCAGCUUGCAUAGUAUUUAGUUA | 0.301 ± 0.018 | 1.1 ± 0.053 | 0.0513 ± 0.0088 | 0.103 ± 0.024 |  | 
18 | UCCUGGAUGUCCUUGGAAAGUAUUUAGUUA |  | 0.00378 ± 0.0039 | 0.000937 ± 0.0059 | 0.00124 ± 0.0061 | 0.00235 ± 0.0027 | 
19 | UCCUGGAUGUGCUUGCAUAGUAAAAAGUUA |  | 0.00144 ± 0.0079 | 0.000317 ± 0.011 | 0.000209 ± 0.029 | 0.00239 ± 0.0031 | 
20 | UCCUGGAUCUGCUUGCAUAGUAUUUUCAAA |  |  | 0.00176 ± 0.0027 | 0.00116 ± 0.0056 | 0.00109 ± 0.0045 | 
21 | UCCUGGAUGUCGUUGCAUAGAAUUUAGUUA |  | 0.001 ± 0.0063 | 0.00099 ± 0.0056 | 0.00145 ± 0.0049 | 0.00248 ± 0.0028 | 
22 | UCCUGGUACUCGUUGCAUAGUAUUUAGAAA |  | 0.00249 ± 0.007 | 0.00112 ± 0.0085 | 0.00143 ± 0.0043 | 0.000673 ± 0.01 | 
23 | UCCUGGAUGUCCUUGCAUAGUAUUUUCAUA |  | 0.00378 ± 0.0042 | 0.00128 ± 0.0049 | 0.00154 ± 0.0056 | 0.00114 ± 0.0056 | 

Single records, as listed above:
UCCUGGAUCUGCUUGCAUAGUAUUUUCAAA is listed as pre-steady-state target cleavage rate [2, 5]: 0.00176 ± 0.0027; pre-steady-state target cleavage rate [3, 6]: 0.00116 ± 0.0056; pre-steady-state target cleavage rate [1, 5]: 0.00109 ± 0.0045
UCCUGGAUGUCGUUGCCAUAGUAUUUAGUUA is listed as pre-steady-state target cleavage rate [2, 4]: 0.000779 ± 0.01; pre-steady-state target cleavage rate [2, 5]: 0.000481 ± 0.014; pre-steady-state target cleavage rate [3, 6]: 0.000216 ± 0.02; pre-steady-state target cleavage rate [1, 5]: 0.00067 ± 0.011

Continued:

Row | Sequence | pre-steady-state target cleavage rate [1, 4] | pre-steady-state target cleavage rate [2, 4] | pre-steady-state target cleavage rate [2, 5] | pre-steady-state target cleavage rate [3, 6] | pre-steady-state target cleavage rate [1, 5] | pre-steady-state target cleavage rate [3, 7]
24 | UCCUGGAUCAGCUUGCUAAGUAUUUAGAAA |  | 0.00237 ± 0.0056 | 0.00181 ± 0.0039 | 0.000393 ± 0.0076 | 0.00139 ± 0.0038 | 
25 | UCCUGCUACAGCUUCGUUAGUAUUUAGAAA |  | 0.00185 ± 0.0048 | 0.000594 ± 0.01 | 0.000196 ± 0.011 | 0.000415 ± 0.012 | 
26 | UCCUGGAUCAGCUACGAUAGUAUUUAGUUA |  | 0.00305 ± 0.0044 | 0.00163 ± 0.0046 |  | 0.000901 ± 0.0082 | 0.000429 ± 0.016
27 | UCCUGGAUCUCGUUGCAUAGUAUUUUCAAA |  | 0.00272 ± 0.0047 | 0.000987 ± 0.005 | 0.000283 ± 0.013 | 0.00163 ± 0.0034 | 
28 | UCCUGGAUCAGCUUGCAUACUAUUUUCAAA |  | 0.00597 ± 0.0043 | 0.000656 ± 0.013 | 0.000957 ± 0.0029 | 0.000696 ± 0.008 | 
29 | UCCUGGAUGAGGUUGCAUAGUAUUUAGAAA |  | 0.00106 ± 0.0085 | 0.000852 ± 0.0073 | 0.00315 ± 0.0029 | 0.00052 ± 0.011 | 
30 | UCCUCCUACAGCUUCGAUAGUAUUUAGUAA |  | 0.263 ± 0.031 | 0.00104 ± 0.0036 | 0.00413 ± 0.0021 | 0.00231 ± 0.0025 | 
31 | UCCUGGAUGAGCUUGCAUAGUAUUUUCUAA |  | 0.222 ± 0.052 | 0.00278 ± 0.0035 | 0.00391 ± 0.0026 | 0.00046 ± 0.013 | 
32 | UCCUGGAUGUCCUUGCAUACUAUUUUGUUA |  |  | 0.00106 ± 0.0056 | 0.000276 ± 0.011 | 0.00106 ± 0.0049 | 
33 | UCCUCGUACAGCUUGCUUAGUAUUUAGUUA | 0.286 ± 0.016 | 1.51 ± 0.069 | 0.0419 ± 0.0089 | 0.0519 ± 0.012 |  | 
34 | UCCUGGAUGUCGAUGCAUAGUAAUUUGUUA |  | 0.000541 ± 0.019 | 0.000859 ± 0.0077 | 0.000528 ± 0.013 | 0.00103 ± 0.0052 | 
35 | UCCUGGAUGUCGAACCAUAGUAUUUAUUA | 0.000148 ± 0.029 | 0.000109 ± 0.05 | 0.000347 ± 0.017 | 0.000144 ± 0.016 |  | 
36 | UCCUCCUACAGCUUGCAUAGUAUUUAGUUA [g2:g26:cont:t1A] | 0.344 ± 0.02 | 1.32 ± 0.052 | 0.0816 ± 0.015 | 0.121 ± 0.034 |  | 
37 | UCCUGCUACAGCUUGCUAAGUAUUUUCAAA |  |  | 0.000648 ± 0.01 | 0.00125 ± 0.0064 | 0.000646 ± 0.0085 | 
38 | UCCUGGAUGUCGUUGCUUAGUAUUUAGAUA |  | 0.000174 ± 0.035 | 0.000625 ± 0.0094 | 0.000338 ± 0.0097 | 0.00177 ± 0.0041 | 
39 | UCCUGGAUGAGCUUGCAAUCUAUUUAGUAA |  | 0.00113 ± 0.008 | 0.000805 ± 0.01 | 0.000202 ± 0.019 | 0.000182 ± 0.019 | 
40 | UCCUCCUUACAGCUUGCAUAGUAUUUAGUUA | 0.301 ± 0.014 | 1.3 ± 0.052 | 0.0583 ± 0.011 | 0.117 ± 0.03 |  | 
41 | UCCUGGAUCAGCUUCGUUAGUAUUUUCAAA |  | 0.00132 ± 0.0077 | 0.000719 ± 0.0079 | 0.00082 ± 0.0098 | 0.000514 ± 0.0067 | 
42 | UCCUGCUACAGCUUGCUUAGUAUUAAGUUA |  | 0.403 ± 0.038 | 0.00887 ± 0.0026 | 0.00988 ± 0.0037 | 0.00265 ± 0.0028 | 
43 | UCCUGGAUGUGCUUGCAUAGUAUUUAGGUA |  | 0.0938 ± 0.016 | 0.0113 ± 0.0031 | 0.00137 ± 0.0053 | 0.00112 ± 0.0081 | 
44 | UCCUGGAUGAGCUUCGAUAGUAUUUAGUAA |  | 0.00125 ± 0.0082 | 0.000874 ± 0.0065 | 0.000978 ± 0.0078 | 0.000737 ± 0.0084 | 
45 | UCCUCCUACAGCGUUGCAUAGUAUUUAGUUA | 0.296 ± 0.021 | 0.96 ± 0.057 | 0.0256 ± 0.0045 | 0.0299 ± 0.009 |  | 
